Earlier results, collected in patent US20240197701A1, “ANDROGEN RECEPTOR INHIBITION TO TREAT SEPSIS AND SHOCK” (priority 2021, published 2024).
At least one compound was matched to its structure with a doubt left.

Columns and labels:
COVID-19 [1] = settings: patients requiring mechanical ventilation, cited from earlier work
COVID-19 [2] = settings: cited from earlier work

Row | SMILES | Mortality rate ratio (COVID-19 [1]; compared to placebo) | Mortality (COVID-19 [1]) | Median time to recovery (COVID-19 [2]; hospitalized COVID-19 patients) | Mortality rate at 29 days (COVID-19 [2]; human, in vivo) | Hazard Ratio for mortality (COVID-19 [2]; versus placebo)
1 | C[C@@H]1C[C@H]2[C@@H]3CCC4=CC(=O)C=C[C@]4(C)[C@@]3(F)[C@@H](O)C[C@]2(C)[C@@]1(O)C(=O)CO [dexamethasone] | 0.64 | 29.3% |  |  | 
2 | CCC(CC)COC(=O)[C@H](C)N[P@](=O)(OC[C@H]1O[C@@](C#N)(c2ccc3c(N)ncnn23)[C@H](O)[C@@H]1O)Oc1ccccc1 [remdesivir] |  |  | ten | 11.4% | 0.73
